The list does not hold the whole screen: it gathers tests that were run many times, whatever their T/C, doses with no T/C, and many T/C values between a quarter and a half above the control. Further doses and runs are listed elsewhere. T/C is the treated group as % of the vehicle group. Schedules are NCI's codes, read here as Q, the interval in days (D) or hours (H), X, the number of doses. Some T/C values are followed by the survivors on the day toxicity was checked, most often the fifth; where none is given, no animal had died by that day. Some doses have a count of surviving animals in place of a T/C: the source holds a T/C of zero for them, seemingly a mark for toxic or unscored doses. Counts of survivors are from the toxicity check (mostly the fifth day) where no day follows; animals may have died later. Some doses were run more than once; their values stand side by side, smallest first. Starred links: 1 amine or outer side, 2 acyl side, 3 side chain; linkers in the order of their positions; H or OH if unused. Positions of bridges follow the written chain, without caps; N, C: chain ends. Non-standard residues stand in square brackets, D forms with d. Residues, ends and D or L forms follow the SMILES beside them. Chains are numbered I, II in the order given. Actinocin(9to1) = Cc1c2oc3c(C)ccc(C(=O)[*:1])c3nc-2c(C(=O)[*:2])c(N)c1=O; aThr = C[C@H](O)[C@H](N)C(=O)O; NMeV = CN[C@H](C(=O)O)C(C)C; Sar = CNCC(=O)O
Test system: nude mice, HT29 intrarenal xenograft, tumor weight T/C
Test: NCI In Vivo Anticancer Drug Screen. Data for tumor model HT29;CX-1 Human Adenocarcinoma (MER+) (intrarenal inoculation) in NU/NU Swiss (nude) mice
Conditions: T/C endpoint: mean tumor weight change, higher T/C = larger tumour
Outline: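 Endpoint measured as tumor size or survival; ratio reported is treated group over vehicle controls.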

[1] = dose: 300.0 mg/kg/injection, schedule: Q04DX004 (sc), vehicle: saline with Tween-80
[2] = dose: 600.0 mg/kg/injection, schedule: Q04DX004 (sc), vehicle: saline with Tween-80
[3] = dose: 1200.0 mg/kg/injection, schedule: Q04DX004 (sc), vehicle: saline with Tween-80
[4] = dose: 100.0 mg/kg/injection, schedule: Q01DX010 (sc), vehicle: saline
[5] = dose: 200.0 mg/kg/injection, schedule: Q01DX010 (sc), vehicle: saline

CN(C)/N=N/c1nc[nH]c1C(N)=O was tested, and the survivor count (dose: 400.0 mg/kg/injection, schedule: Q01DX010 (sc), vehicle: Klucel (hydroxypropylcellulose) (HPC)) was 0 of 3 on day 11 and the survivor count (dose: 800.0 mg/kg/injection, schedule: Q01DX010 (sc), vehicle: Klucel (hydroxypropylcellulose) (HPC)) was 0 of 3 on day 11.

With O=NN(CCCl)C(=O)NCCCl the T/C (dose: 4.0 mg/kg/injection, schedule: Q01DX010 (sc), vehicle: saline, evaluated on day 11) was 140 % of control, the survivor count (dose: 32.0 mg/kg/injection, schedule: Q01DX010 (sc), vehicle: saline) was 0 of 3 on day 11 and the survivor count (dose: 120.0 mg/kg/injection, schedule: Q04DX004 (sc), vehicle: suspension in saline) was 2 of 4 on day 15.

Cc1cc(=O)n2c3c(c4c(cc13)c(CN(C)C)cc(=O)n4C)OC2 was tested, and the survivor count [1] was 1 of 6 on day 15 and the survivor count [2] was 1 of 6 on day 15.

CO[C@H](C(=O)[C@@H](O)[C@@H](C)O)[C@@H]1Cc2cc3cc(OC4CC(OC5CC(O)C(O)C(C)O5)C(O)C(C)O4)c(C)c(O)c3c(O)c2C(=O)[C@H]1OC1CC(OC2CC(OC3CC(C)(O)C(O)C(C)O3)C(O)C(C)O2)C(O)C(C)O1 (some centres undefined) was tested, and the survivor count (dose: 2.0 mg/kg/injection, schedule: Q01DX010 (sc), vehicle: saline) was 0 of 4 on day 11 and 1 of 3 on day 11 and the survivor count (dose: 6.0 mg/kg/injection, schedule: Q04DX004 (sc), vehicle: saline) was 1 of 6 on day 15 and 2 of 6 on day 15.

In the case of CCCCCCCCCCCCCCCCCC(=O)OCC(=O)OCC(=O)[C@]1(O)Cc2c(O)c3c(c(O)c2[C@@H](OC2CC(N)C(O)C(C)O2)C1)C(=O)c1c(OC)cccc1C3=O (some centres undefined), the survivor count (dose: 24.0 mg/kg/injection, schedule: Q01DX010 (sc), vehicle: water) was 0 of 3 on day 20 and the survivor count (dose: 60.0 mg/kg/injection, schedule: Q04DX004 (sc), vehicle: water) was 0 of 3 on day 15.

In the case of CC(=O)N(C)c1ccc(Nc2cc(C)[nH]c3ccc4ncnc4c23)cc1, the survivor count (dose: 400.0 mg/kg/injection, schedule: Q04DX004 (sc), vehicle: saline with Tween-80) was 1 of 6 on day 15.

In the case of CC[C@@]1(O)C[C@H](OC2CC(N(C)C)C(OC3CC(O)C(OC4CCC(=O)C(C)O4)C(C)O3)C(C)O2)c2c(cc3c(c2O)C(=O)c2c(O)ccc(O)c2C3=O)[C@H]1C(=O)OC (some centres undefined), the survivor count (dose: 12.0 mg/kg/injection, schedule: Q04DX004 (sc), vehicle: water) was 0 of 6 on day 15 and the survivor count (dose: 24.0 mg/kg/injection, schedule: Q04DX004 (sc), vehicle: water) was 0 of 6 on day 15.

For O=S(=O)(N=N/C=C1\C=CC=CN1O)c1cccs1, the survivor count [1] was 3 of 6 on day 15, the survivor count [2] was 0 of 6 on day 15 and the survivor count [3] was 0 of 6 on day 15.

CCCCCCCCCCCCCCCCS(=O)CC(O)COC(=O)c1ccc(C(=O)OCC(O)CS(=O)CCCCCCCCCCCCCCCC)cc1 (centres undefined) was tested, and the survivor count (dose: 50.0 mg/kg/injection, schedule: Q01DX010 (sc), vehicle: saline + Tween-80 + alcohol) was 1 of 3 on day 20.

Nc1nncs1 was tested, and the T/C (dose: 6.25 mg/kg/injection, schedule: Q01DX010 (sc), vehicle: saline, evaluated on day 11) was 125 % of control [2 of 2 alive on day 11], the survivor count (dose: 25.0 mg/kg/injection, schedule: Q01DX010 (sc), vehicle: saline) was 1 of 3 on day 11 and the survivor count [4] was 1 of 3 on day 11. For the same compound, the survivor count [5] was 0 of 3 on day 11, the survivor count (dose: 400.0 mg/kg/injection, schedule: Q01DX010 (sc), vehicle: saline) was 0 of 3 on day 11 and the survivor count (dose: 800.0 mg/kg/injection, schedule: Q01DX010 (sc), vehicle: saline) was 0 of 3 on day 11.

OC(C1CO1)C(O)C1CO1 (centres undefined) was tested, and the survivor count (dose: 4.0 mg/kg/injection, schedule: Q01DX010 (sc), vehicle: saline) was 0 of 3 on day 11 and 1 of 3 on day 11, the survivor count (dose: 8.0 mg/kg/injection, schedule: Q01DX010 (sc), vehicle: saline) was 0 of 3 on day 11 and the survivor count (dose: 16.0 mg/kg/injection, schedule: Q01DX010 (sc), vehicle: saline) was 0 of 3 on day 11.

In the case of C[CH2][Pb]([CH2]C)([CH2]C)[O]C(=O)COc1ccccc1, the survivor count (dose: 36.0 mg/kg/injection, schedule: Q04DX004 (sc), vehicle: saline with Tween-80) was 0 of 6 on day 15.

For NC(CCC(=O)NC(CS)C(=O)NCC(=O)O)C(=O)O (centres undefined), the T/C (dose: 1200.0 mg/kg/injection, schedule: Q04DX004 (sc), vehicle: saline, evaluated on day 15) was 127 % of control.

Cc1c2oc3c(C)ccc(C(=O)N[C@@H]4C(=O)N[C@H](C(C)C)C(=O)N5CCC[C@H]5C(=O)N(C)CC(=O)N(C)[C@@H](C(C)C)C(=O)O[C@H]4C)c3nc-2c(C(=O)N[C@@H]2C(=O)N[C@H](C(C)C)C(=O)N3CCC[C@H]3C(=O)N(C)CC(=O)N(C)[C@@H](C(C)C)C(=O)O[C@H]2C)c(N)c1=O (I: [aThr][dV]P[Sar][NMeV] / II: [aThr][dV]P[Sar][NMeV]; ester I:1-I:C, II:1-II:C; linker I:N-II:N via Actinocin(9to1)) was tested, and the survivor count (dose: 400.0 micrograms/kg/injection, schedule: Q01DX010 (sc), vehicle: saline) was 0 of 3 on day 11.

c1ccc(CN2CCOC2)cc1 was tested, and the survivor count (dose: 200.0 mg/kg/injection, schedule: Q01DX010 (sc), vehicle: suspension in saline) was 1 of 3 on day 11.

For Nc1n[nH]c(N)n1, the survivor count (dose: 1600.0 mg/kg/injection, schedule: Q01DX010 (sc), vehicle: saline) was 0 of 3 on day 20.

In the case of O=c1[nH]cc(F)c(=O)[nH]1, the survivor count (dose: 40.0 mg/kg/injection, schedule: Q01DX010 (sc), vehicle: saline) was 0 of 3 on day 11, the survivor count (dose: 50.0 mg/kg/injection, schedule: Q01DX010 (sc), vehicle: saline) was 0 of 3 on day 11 and the survivor count (dose: 80.0 mg/kg/injection, schedule: Q01DX010 (sc), vehicle: saline) was 0 of 3 on day 11. For the same compound, the survivor count (dose: 112.0 mg/kg/injection, schedule: Q04DX004 (ip), vehicle: saline) was 1 of 6 on day 15.

In the case of OC1CCCC2CCCNC12 (centres undefined), the survivor count [1] was 0 of 6 on day 15.

With CS(=O)(=O)CS(=O)(=O)OCCCl the survivor count (dose: 300.0 mg/kg/injection, schedule: Q04DX004 (sc), vehicle: suspension in saline) was 3 of 6 on day 15.

C(=N/NC1=NCCN1)/c1c2ccccc2c(/C=N\NC2=NCCN2)c2ccccc12 was tested, and the survivor count (dose: 150.0 mg/kg/injection, schedule: Q04DX004 (sc), vehicle: saline) was 2 of 6 on day 15.

With C=C1C(=O)OCC2C(C(=O)O)=CC3C(C)C(C)=CC123 (centres undefined) the T/C (dose: 3.13 mg/kg/injection, schedule: Q01DX010 (sc), vehicle: Klucel (hydroxypropylcellulose) (HPC), evaluated on day 11) was 147 % of control and the T/C (dose: 6.25 mg/kg/injection, schedule: Q01DX010 (sc), vehicle: Klucel (hydroxypropylcellulose) (HPC), evaluated on day 11) was 127 % of control.

With Cn1c(=O)[nH]c2nncnc2c1=O the survivor count (dose: 120.0 mg/kg/injection, schedule: Q04DX004 (sc), vehicle: water) was 0 of 6 on day 15.

CN=S(=O)(OCCCCCOS(=O)(=NC)c1ccccc1)c1ccccc1 (centres undefined) was tested, and the survivor count [3] was 0 of 6 on day 15.

With Cc1c2ccccc2cc2cccc[n+]12 the survivor count (dose: 60.0 mg/kg/injection, schedule: Q04DX004 (sc), vehicle: saline) was 0 of 6 on day 15.

For COc1ccc2[nH]c3c(c2c1)CCNC3CC(C)CCC=C(C)C (centres undefined), the T/C (dose: 75.0 mg/kg/injection, schedule: Q04DX004 (sc), vehicle: Klucel (hydroxypropylcellulose) (HPC), evaluated on day 15) was 133 % of control.

For C/C(=C\c1ccccc1)[N+](=O)[O-], the T/C (dose: 25.0 mg/kg/injection, schedule: Q01DX010 (sc), vehicle: Klucel (hydroxypropylcellulose) (HPC), evaluated on day 11) was 132 % of control and the survivor count (dose: 200.0 mg/kg/injection, schedule: Q01DX010 (sc), vehicle: Klucel (hydroxypropylcellulose) (HPC)) was 1 of 3 on day 11.

In the case of C[n+]1c2cc(N)ccc2cc2ccc(N)cc21, the survivor count (dose: 12.5 mg/kg/injection, schedule: Q01DX010 (sc), vehicle: saline) was 0 of 3 on day 11.

CC1CN1P1(N2CC2C)=NP(N2CC2C)(N2CC2C)=NP(N2CC2C)(N2CC2C)=N1 (centres undefined) was tested, and the T/C (dose: 25.0 mg/kg/injection, schedule: Q01DX010 (sc), vehicle: saline, evaluated on day 11) was 146 % of control and the survivor count [5] was 0 of 3 on day 11.

With BrC1CC(Br)c2c1c1c(c3c2C(Br)CC3Br)C(Br)CC1Br (centres undefined) the T/C (dose: 600.0 mg/kg/injection, schedule: Q04DX004 (sc), vehicle: water, evaluated on day 15) was 136 % of control and the T/C (dose: 2400.0 mg/kg/injection, schedule: Q04DX004 (sc), vehicle: water, evaluated on day 15) was 128 % of control.

For CCN(CC)CCCNc1nccc2c(C)c3[nH]c4ccncc4c3cc12, the survivor count (dose: 20.0 mg/kg/injection, schedule: Q01DX010 (sc), vehicle: other) was 1 of 3 on day 11.

In the case of CS(=O)(=O)OCCN(CCOS(C)(=O)=O)c1ccc(C=O)cc1, the survivor count [4] was 0 of 3 on day 11.

Reference: PubChem BioAssay AID206 (DTP/NCI, 2004)
